Reference: PMC11021482
Results are given in words; binding and its absence hold for the method and conditions named. Binding seen in cells or lysates may run through a third protein. Some binding calls cover weakened binding; strength is not graded here.

Protein sequences, listed by entry. Tags and fused reporters are not part of them.
UniProt Q8BLA8: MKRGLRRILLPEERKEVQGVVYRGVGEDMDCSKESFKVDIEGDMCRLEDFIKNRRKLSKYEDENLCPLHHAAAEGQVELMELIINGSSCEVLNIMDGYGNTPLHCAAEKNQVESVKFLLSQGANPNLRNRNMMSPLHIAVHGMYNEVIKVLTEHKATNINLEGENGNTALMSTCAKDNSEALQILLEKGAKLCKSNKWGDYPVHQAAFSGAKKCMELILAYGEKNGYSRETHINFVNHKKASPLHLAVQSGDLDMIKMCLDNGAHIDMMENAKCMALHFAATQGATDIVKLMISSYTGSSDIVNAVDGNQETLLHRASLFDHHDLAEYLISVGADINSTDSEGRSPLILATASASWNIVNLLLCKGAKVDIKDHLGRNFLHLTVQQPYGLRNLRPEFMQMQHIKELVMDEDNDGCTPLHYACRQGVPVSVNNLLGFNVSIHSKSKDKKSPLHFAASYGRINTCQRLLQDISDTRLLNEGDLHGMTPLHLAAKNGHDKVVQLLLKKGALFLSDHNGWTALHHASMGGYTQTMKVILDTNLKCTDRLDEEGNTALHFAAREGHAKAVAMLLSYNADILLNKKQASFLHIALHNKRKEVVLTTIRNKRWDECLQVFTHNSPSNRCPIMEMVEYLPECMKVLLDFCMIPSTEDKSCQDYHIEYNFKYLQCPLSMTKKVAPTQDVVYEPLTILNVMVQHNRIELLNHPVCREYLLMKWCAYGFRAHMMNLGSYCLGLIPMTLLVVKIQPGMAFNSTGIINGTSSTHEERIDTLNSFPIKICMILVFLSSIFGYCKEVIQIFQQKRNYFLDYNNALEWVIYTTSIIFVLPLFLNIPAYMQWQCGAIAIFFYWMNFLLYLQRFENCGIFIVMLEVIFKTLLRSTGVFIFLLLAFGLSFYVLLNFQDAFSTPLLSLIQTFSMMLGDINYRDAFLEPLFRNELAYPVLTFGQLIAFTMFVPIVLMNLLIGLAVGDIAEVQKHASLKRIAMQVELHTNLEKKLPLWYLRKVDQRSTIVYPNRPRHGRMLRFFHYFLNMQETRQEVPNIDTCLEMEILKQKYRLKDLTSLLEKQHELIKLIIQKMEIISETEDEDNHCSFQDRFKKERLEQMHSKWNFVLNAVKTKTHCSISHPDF

T1: CXCR2 of mouse DRG neurons (mouse (endogenous in DRG)) (UniProt P35343)
T1 sequence: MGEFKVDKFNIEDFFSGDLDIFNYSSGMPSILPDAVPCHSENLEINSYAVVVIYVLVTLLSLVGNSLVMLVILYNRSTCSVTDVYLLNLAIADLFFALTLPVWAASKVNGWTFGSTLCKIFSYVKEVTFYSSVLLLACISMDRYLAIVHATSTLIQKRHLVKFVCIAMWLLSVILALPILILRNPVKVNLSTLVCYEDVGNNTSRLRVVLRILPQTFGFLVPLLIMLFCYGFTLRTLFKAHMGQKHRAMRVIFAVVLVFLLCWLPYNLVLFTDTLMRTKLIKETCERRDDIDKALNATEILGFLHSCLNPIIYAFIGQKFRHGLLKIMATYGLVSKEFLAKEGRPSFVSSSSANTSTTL


Columns and labels:
[1] = molecular target: T1, CXCR2 of mouse DRG neurons (mouse (endogenous in DRG)); experiment: co-IP; lysate of ipsilateral L3-L5 DRG of control and MSU (gout model) mice; 50 mM Tris, 150 mM NaCl, 1 mM EDTA, 0.2% Triton X-100; precipitated with 1 μg anti-CXCR2 or anti-TRPA1 antibody at 4 °C overnight, Protein A + G magnetic beads; immunoblot
[2] = molecular target: TRPA1 of mouse DRG (mouse (endogenous in DRG)) (UniProt Q8BLA8); experiment: as above

Row | binding [1] | binding [2] | Molecule
1 | binds |  | TRPA1 of mouse DRG (from UniProt Q8BLA8 1-1125)
2 |  | binds | CXCR2 of mouse DRG neurons (receptor, UniProt P35343 1-359) MGEFKVDKFNIEDFFSGDLDIFNYSSGMPSILPDAVPCHSENLEINSYAVVVIYVLVTLLSLVGNSLVMLVILYNRSTCSVTDVYLLNLAIADLFFALTLPVWAASKVNGWTFGSTLCKIFSYVKEVTFYSSVLLLACISMDRYLAIVHATSTLIQKRHLVKFVCIAMWLLSVILALPILILRNPVKVNLSTLVCYEDVGNNTSRLRVVLRILPQTFGFLVPLLIMLFCYGFTLRTLFKAHMGQKHRAMRVIFAVVLVFLLCWLPYNLVLFTDTLMRTKLIKETCERRDDIDKALNATEILGFLHSCLNPIIYAFIGQKFRHGLLKIMATYGLVSKEFLAKEGRPSFVSSSSANTSTTL
